# The list shows only some results of the screen, not a fair sample: its compounds were picked by chemical class. Other doses and runs of a compound may be missing. T/C gives the treated animals as a percentage of the vehicle group. For survival time, the PubChem record calls one and a half times the control and up active, and a quarter to a half above the control has no call in these data; cut-offs in other NCI protocols can differ. Some T/C values are marked as having no survivor count here; that says nothing about deaths at the dose. Schedule codes are those of the source, read here as Q, the interval in days (D) or hours (H), X, the number of doses. Some entries were tested several times; the results are listed from low to high. Some schedule codes hold Z or #, which are not explained here.
# Tested on: mice, LPC-1 plasma cell tumor ip, median survival T/C
# Experiment: NCI In Vivo Anticancer Drug Screen. Data for tumor model Lieberman Plasma Cell No. 1 (LPC-1) (intraperitoneal) in unknown mice
# Conditions: T/C endpoint: median survival time, vehicle: carboxymethylcellulose (CMC), higher T/C = longer survival
# Method: The antitumor activity of compounds was measured in mice bearing transplantable tumors. Survival or tumor size were measured and the results are expressed as the measurement made in the treated group (T) divided by the measurement made in the vehicle treated control group (C). The tumor model used in this assay is Lieberman Plasma Cell No. 1 (LPC-1) (intraperitoneal) in unknown mice
compound,measurement,setting,value
ClCCN(CCCl)c1ccccc1,T/C,"dose: 1.6 mg/kg/injection, schedule: Q## X040 (oral)",105 % of control [survivor count not shown]
same,T/C,"dose: 1.8 mg/kg/injection, schedule: Q01DX028 (sc)",110 % of control [survivor count not shown]
same,T/C,"dose: 3.0 mg/kg/injection, schedule: Q01DX028 (sc)",118 % of control [survivor count not shown]
same,T/C,"dose: 3.12 mg/kg/injection, schedule: Q01DX024 (oral)",97 % of control [survivor count not shown]
same,T/C,"dose: 3.13 mg/kg/injection, schedule: Q01DX028 (sc)",152 % of control [survivor count not shown]
same,T/C,"dose: 3.2 mg/kg/injection, schedule: Q03HX064 (oral)",205 % of control [survivor count not shown]
same,T/C,"dose: 5.0 mg/kg/injection, schedule: Q01DX028 (sc)",140 % of control [survivor count not shown]
same,T/C,"dose: 6.25 mg/kg/injection, schedule: Q01DX005 (oral)",128 % of control [survivor count not shown]
same,T/C,"dose: 6.25 mg/kg/injection, schedule: Q01DX024 (ip)",529 % of control [survivor count not shown]
same,T/C,"dose: 6.25 mg/kg/injection, schedule: Q01DX024 (oral)",102 % of control [survivor count not shown]
same,T/C,"dose: 6.25 mg/kg/injection, schedule: Q01DX028 (oral)",113 % of control [survivor count not shown]
same,T/C,"dose: 6.25 mg/kg/injection, schedule: Q01DX028 (sc)",121 % of control [survivor count not shown]
same,T/C,"dose: 6.25 mg/kg/injection, schedule: Q02DX014 (sc)",126 % of control [survivor count not shown]
same,T/C,"dose: 6.25 mg/kg/injection, schedule: Q## X010 (oral)",126 % of control [survivor count not shown]
same,T/C,"dose: 6.25 mg/kg/injection, schedule: Q## X015 (oral)",159 % of control [survivor count not shown]
same,T/C,"dose: 6.3 mg/kg/injection, schedule: Q01DX028 (oral)",142 [survivor count not shown] and 186 % of control [survivor count not shown]
same,T/C,"dose: 6.3 mg/kg/injection, schedule: Q03HX064 (oral)",402 % of control [survivor count not shown]
same,T/C,"dose: 6.3 mg/kg/injection, schedule: Q## X008 (oral)",107 % of control [survivor count not shown]
same,T/C,"dose: 6.3 mg/kg/injection, schedule: Q## X040 (oral)",132 % of control [survivor count not shown]
same,T/C,"dose: 8.4 mg/kg/injection, schedule: Q01DX028 (sc)",164 [survivor count not shown] and 171 % of control [survivor count not shown]
same,T/C,"dose: 12.5 mg/kg/injection, schedule: Q01DX001 (sc)",104 [survivor count not shown] and 110 % of control [survivor count not shown]
same,T/C,"dose: 12.5 mg/kg/injection, schedule: Q01DX005 (ip)",208 % of control [survivor count not shown]
same,T/C,"dose: 12.5 mg/kg/injection, schedule: Q01DX005 (oral)",240 [survivor count not shown] and 347 % of control [survivor count not shown]
same,T/C,"dose: 12.5 mg/kg/injection, schedule: Q01DX015 (oral)",108 % of control [survivor count not shown]
same,T/C,"dose: 12.5 mg/kg/injection, schedule: Q01DX024 (ip)",529 % of control [survivor count not shown]
same,T/C,"dose: 12.5 mg/kg/injection, schedule: Q01DX024 (oral)",97 % of control [survivor count not shown]
same,T/C,"dose: 12.5 mg/kg/injection, schedule: Q01DX028 (oral)","115 [survivor count not shown], 125 [survivor count not shown], 133 % of control [survivor count not shown]"
same,T/C,"dose: 12.5 mg/kg/injection, schedule: Q01DX028 (sc)",168 % of control [survivor count not shown]
same,T/C,"dose: 12.5 mg/kg/injection, schedule: Q02DX014 (sc)",165 % of control [survivor count not shown]
same,T/C,"dose: 12.5 mg/kg/injection, schedule: Q03HX064 (oral)",167 % of control [survivor count not shown]
same,T/C,"dose: 12.5 mg/kg/injection, schedule: Q07DX004 (sc)",118 % of control [survivor count not shown]
same,T/C,"dose: 12.5 mg/kg/injection, schedule: Q## X008 (oral)",125 % of control [survivor count not shown]
same,T/C,"dose: 12.5 mg/kg/injection, schedule: Q## X010 (ip)",529 % of control [survivor count not shown]
same,T/C,"dose: 12.5 mg/kg/injection, schedule: Q## X010 (oral)",428 % of control [survivor count not shown]
same,T/C,"dose: 12.5 mg/kg/injection, schedule: Q## X015 (ip)",529 % of control [survivor count not shown]
same,T/C,"dose: 12.5 mg/kg/injection, schedule: Q## X015 (oral)",380 % of control [survivor count not shown]
same,T/C,"dose: 12.5 mg/kg/injection, schedule: Q## X040 (oral)",105 % of control [survivor count not shown]
same,T/C,"dose: 12.51 mg/kg/injection, schedule: Q07DX004 (sc)",110 % of control [survivor count not shown]
same,T/C,"dose: 14.0 mg/kg/injection, schedule: Q01DX028 (sc)",134 [survivor count not shown] and 145 % of control [survivor count not shown]
same,T/C,"dose: 23.0 mg/kg/injection, schedule: Q01DX028 (sc)",157 [survivor count not shown] and 170 % of control [survivor count not shown]
same,T/C,"dose: 25.0 mg/kg/injection, schedule: Q01DX001 (oral)",428 % of control [survivor count not shown]
same,T/C,"dose: 25.0 mg/kg/injection, schedule: Q01DX001 (sc)",126 % of control [survivor count not shown]
same,T/C,"dose: 25.0 mg/kg/injection, schedule: Q01DX005 (ip)",182 % of control [survivor count not shown]
same,T/C,"dose: 25.0 mg/kg/injection, schedule: Q01DX005 (oral)","97 [survivor count not shown], 309 [survivor count not shown], 450 [survivor count not shown], 500 % of control [survivor count not shown]"
same,T/C,"dose: 25.0 mg/kg/injection, schedule: Q01DX015 (oral)",94 % of control [survivor count not shown]
same,T/C,"dose: 25.0 mg/kg/injection, schedule: Q01DX024 (ip)",126 % of control [survivor count not shown]
same,T/C,"dose: 25.0 mg/kg/injection, schedule: Q01DX024 (oral)",100 % of control [survivor count not shown]
same,T/C,"dose: 25.0 mg/kg/injection, schedule: Q01DX028 (oral)","90 [survivor count not shown], 127 [survivor count not shown], 150 % of control [survivor count not shown]"
same,T/C,"dose: 25.0 mg/kg/injection, schedule: Q01DX028 (sc)",131 % of control [survivor count not shown]
same,T/C,"dose: 25.0 mg/kg/injection, schedule: Q02DX014 (sc)",210 % of control [survivor count not shown]
same,T/C,"dose: 25.0 mg/kg/injection, schedule: Q03HX064 (oral)",127 % of control [survivor count not shown]
same,T/C,"dose: 25.0 mg/kg/injection, schedule: Q04DX008 (oral)",100 % of control [survivor count not shown]
same,T/C,"dose: 25.0 mg/kg/injection, schedule: Q07DX004 (sc)",143 % of control [survivor count not shown]
same,T/C,"dose: 25.0 mg/kg/injection, schedule: Q14DX002 (sc)",109 % of control [survivor count not shown]
same,T/C,"dose: 25.0 mg/kg/injection, schedule: Q## X008 (oral)",175 % of control [survivor count not shown]
same,T/C,"dose: 25.0 mg/kg/injection, schedule: Q## X010 (ip)",144 % of control [survivor count not shown]
same,T/C,"dose: 25.0 mg/kg/injection, schedule: Q## X010 (oral)",105 [survivor count not shown] and 428 % of control [survivor count not shown]
same,T/C,"dose: 25.0 mg/kg/injection, schedule: Q## X015 (ip)",100 % of control [survivor count not shown]
